doi:10.1101/2024.06.27.600786
No constants are given. Whether binding was seen depends on the method and setting. Binding seen in cells or lysates may run through a third protein. Some binding calls cover weakened binding; strength is not graded here. Tags and fused reporters may be left off the sequences shown.

Sequences of proteins named here, by UniProt entry; tags and fusion partners are left off.
UniProt P51807: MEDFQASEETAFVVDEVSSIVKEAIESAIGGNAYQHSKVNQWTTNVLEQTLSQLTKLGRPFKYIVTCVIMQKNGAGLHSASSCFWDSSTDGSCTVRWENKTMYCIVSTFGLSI

T1: Tctex1 domain-containing 2 (TCTEX1D2), 3×FLAG knock-in (mouse) (UniProt Q9CQ66)
T1 sequence: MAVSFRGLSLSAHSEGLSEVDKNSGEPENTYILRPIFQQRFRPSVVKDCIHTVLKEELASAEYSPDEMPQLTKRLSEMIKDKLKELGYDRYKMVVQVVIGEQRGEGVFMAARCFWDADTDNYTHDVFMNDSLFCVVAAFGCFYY

B1: WDR63 (protein, UniProt B2RY71 1-923)
chain: MAPKPPKSPKGQKKGKKNMKQQLLVPEEEEPMNMESMGHPEIYPLVLTTKTQEIFNCRVDEDMTDEQTYKLIKKEDILADLQNRAAVSDFHPVKKIVREYPGEELLLVYDKDFKYGLNFYLIGTEDGKENFLKPPEVPEEQEEPKEHVQEDVYVYNPPVSKPWVSLGSEKEIEEESVQESGKRVTYMISRKRSEFGAPVTFSDQNASSVKDAYIECTSYPEKNYTLSQVEKDVGLQVIAEVKDTSTQTKWAFPKNATTQYYPREFSEEEKSLIGKSKSLVDFFNNVSTSVEVALQQNEIMNTFIDDWKNLAEEESTFGDKTDTHLKEYQSFTDLHNTMEKMITCVSWHPTIFGLIVVSVAVRLSYEERVQNSGRLLLQPSLLLFWSFSDPIHPQLMLESPDDIFCFEFCPSDPNIIAGGCINGQIVLWDITAHADRIENIKTGGHRSKKTSLKPMFLLEPDSNKESMYIRHCAVSSIENGHRKVITDIHWLPDSFEINRMGSVFENRSGINCQLVTCSADCTICFWDIRPQKPAVTAAAAASAATTATNNANSQQSPVEKKKEENIDIPFDVPSTFLHLDLSWKPLSRLKLSKGDTSLDHCPTKLSLGEDPFLCKIQGTSSIHIILRDKMLSQIKMVKTSEINPYQNLEAGIANILKPIEDFCTKFFVGTEEGEVIYTDWKMERDSDTGRLMAKKPVSLYTVHDGAVHTIQRSPFFNDIVLTVGGWNVAIWKEEVMTGPLLQTCCGPKRYTAGHWSLTRPGVFYIGREDGNVDIWDLLEKTHEPAQSQNICITMITYIKPWTFSSKQQFIAVADYYGTLHILEIPWTLSHPSLNEVSSVNYYFEREVRHLEYVQQRKEIREQEKIDMALELVKKKAKIYQKTKEQMEAELKLEYESYLDLEKSVLFALGLSKVSEKKSYLDSH
B2: WDR78 (protein, UniProt E9PYY5 1-807)
chain: MHSSPTSTRKQASFAASASAQPRKSISFINPSKSSAGKGYAASNPNKLAVSRTMGFLTDMKPAEKLNVPSAKTVQVLDSKGVDVTPRPLYHPDPHAASAKPNKLLTSQEGSLGSDYISSYSLYQNTLNPSMLGQYTRSVLGSSSVSKSSISTTESMSEDLEDSSYKRDRLASFTDVRVLRSTAEAAISKEELEKTIEIILTETETLRFFDLPTVMFSTESEEAEKIIEKNKKYETLCRNRLGNDLYVERMMQTFNGAPKNKEVQCEKIILEEKGVVATTWDLYDSYNIPETLLAAKRSGYSSKGSLPAKDRDPKIQDSESSSLMDIENVILAKVQEDEEDNSEAILKSDKLHQDLFYMERVLMENVFQPKLAAYRQLPVYKEHEPEEPEETLQVENLKVAEDEPKKEDEEEVEMELELEIATEQSTIPANLERLWSFSCDLTKGLNVSSLSWNKANPDLLAVGYGNFGFREQKKGMACCWSIKNPMWPERIYQSSYGVTSVDFSNSSPNLLAVGYHNGTVAIYNVQSSHNIPVLDSSESPQKHLGPVWQVQWIEQDRGTTGDDKREILVSISADGRISKWIIRKGLDCHDLMRLKRTTATGGKKGGEKEKKGEALISRQAPGMCFAFHPKDTNIYLAGTEEGLIHKCSCSYNEQYLETYRGHKGPVYKVTWNPFCPDVFLSCSADWGVMIWHQDTVKPFLSFYPTTYVVYDVSWSPKSAYIFAAANENRVEIWDLQISTLDPLIVNVANPGIKFTTVLFAKETDCLLVGDSDGQVAVYELRNMPTASDTSRGDVINILLGPKTNHTG
B3: WDR34 (protein, UniProt Q5U4F6 1-537)
chain: MAMCASPRPFRRVGSAGAAALAAGGAGGAERRGRPAPLQDETLGVASVPSQWRSVQGIRGETKSCQTAGIATAESSAQARTHADAQVQTEAPEEPAAMAPVSQYDTLRLEAFLRRVEAMVIRELNNNWQSHAFDGYEVNWTEQQQTVSCLHTLVYPLAQGQGLHVTGISWNSTGSVLACAYGRLDDGDWSTLKSYVCTWNLDRQGLNPQQPSVVVEVPSAVMCLAFHPTQPSHIAGGLYSGEVLVWDMSRPEDPLLWRTGLTDDTHTDPVYQVLWLPEPRHSHRFQVLSAATDGKVLLWRGSGAGQLRLTKGFALAVQQLPRSTKLKKPPRGETEVGVTSVAFSSFDSSLFVLGTEGGFPLKCSLASEVAALTRMPSSVPLRAPVQFTFSPHGGPVYSVSCSPFHRNLFLSAGTDGHVHLYSMLQAQPLTSLQLSHKYLFAVRWSPVRPLVFAAASGEGDVQLFDLQKSSQKPTVSITQTQDGSPVYCLEFNSQQTQLLAAGDAKGMVKVWQLSTAFTEQGPREVEDLDQLEAEITT
B4: WDR60 (protein, UniProt Q8C761 1-999)
chain: MEPGKRRTKDDTWKADDLRKHLKVQSGSPKEEKKLREKKAHKDSESAAPEYREHKSRDPDREARHKEKTAERDLYTSTEHPRGERDRERHKERRKDAKDREKDKLKERHRDQEAEKAHSRGKDREREKDRRARKEEIRQSMAYHDLLSRDMRGRQMAEKVEKKASKIRTEERERRDEDSERIDEDRERRYRERKLQYGDSKEHPLSYWLYKEDGEKKHRKAKDADREKRLREKSSMREKRERHAREKGSSLSDREVEDRHREKRHKEGLHYDDERRRSHADKKERSSKEEHKKRELKELEKEDNDLEATGPDEYLPNLEDDFVDYEDDFEVCDGDDDSNNEHEAREKAEELPLAQKREIQEIQKAISAENERVGELSLKMFQKQGWTEYTKEPWTDANDSPSRTPVCGIFVDFATASHRQKSRSQALKQKTRSSKLLRLIDLDFSFTFSLLDLPPVNEYDMYIRNFGKKNTKQAYVQYNEDNVERDIQTEDIETREVWTQHPGEGTAVSGGSEEKDFSDVTVVPKIDTPRLANFLRAACQVVAVLLEEDRLAAGPSWIPRAQDKALNISDSSSQLNTSLPFLQSRKVSCLHASRVQRQTVVSVHDLPEKAFAPSLDSRHLLCVWDIWQPSGPQKVLICESKVTCCCFSPLKAFLLFAGTVHGSVVVWDLREDSRIHHYVRLSNCFWAFRTPTFSTDGILTSVNHRSPLQAIEPVATSAYKKQSFVLSPFSTQEEMAGLSFHIASLDETGVLNVWVVVELPKADISGSMSDLGLIPGGRIKLVHSTVIQLGNSLSHKDSELWGSTQTLSVKFLPSDPNHFVVGTDMGLISHSTRQDWRVSPRVFKPEQHGVRPIKVNVIDFSPFEETVFLAGCSDGSIRLHQLTSERPIMQWDNSTSGHAVTSLQWSPTRPAVFLVQDDASRIYVWDLLENDLGPVAQQPISPDKLVAMTIVGEPEKTSGSFVALVLARTSGTVDVQNLKRRWTTPAVDEHSQLRLLLQK

target: T1, Tctex1 domain-containing 2 (TCTEX1D2), 3×FLAG knock-in (mouse); experiment: co-IP

binding, binds:
DYNLT1 (from UniProt P51807 1-113), B1, B2, B3, B4
